Article PMC13480600
These are yes or no findings as the source states them, for the method shown. Some results given as binding are weak or reduced against the parent protein; the word gives no strength.

Sequences of proteins named here, by UniProt entry; tags and fusion partners are left off. Residues count along the entry.
UniProt Q09057, residues 56-711: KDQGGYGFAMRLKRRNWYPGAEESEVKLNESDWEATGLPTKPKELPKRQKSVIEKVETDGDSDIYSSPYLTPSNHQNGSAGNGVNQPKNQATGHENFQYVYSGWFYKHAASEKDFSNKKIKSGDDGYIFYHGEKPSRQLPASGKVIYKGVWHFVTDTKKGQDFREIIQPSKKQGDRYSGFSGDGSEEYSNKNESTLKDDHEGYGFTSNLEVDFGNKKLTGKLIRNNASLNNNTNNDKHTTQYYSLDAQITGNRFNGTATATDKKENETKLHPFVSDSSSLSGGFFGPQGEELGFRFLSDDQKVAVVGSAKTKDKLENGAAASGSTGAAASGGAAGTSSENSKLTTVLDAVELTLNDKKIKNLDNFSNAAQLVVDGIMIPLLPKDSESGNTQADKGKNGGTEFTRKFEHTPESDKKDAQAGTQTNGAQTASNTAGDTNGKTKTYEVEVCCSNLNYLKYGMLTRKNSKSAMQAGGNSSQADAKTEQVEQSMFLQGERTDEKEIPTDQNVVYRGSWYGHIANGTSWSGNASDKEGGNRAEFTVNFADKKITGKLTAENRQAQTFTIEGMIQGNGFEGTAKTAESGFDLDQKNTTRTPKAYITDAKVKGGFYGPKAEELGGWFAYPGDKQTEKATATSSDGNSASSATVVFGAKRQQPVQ
UniProt P02787, residues 20-698: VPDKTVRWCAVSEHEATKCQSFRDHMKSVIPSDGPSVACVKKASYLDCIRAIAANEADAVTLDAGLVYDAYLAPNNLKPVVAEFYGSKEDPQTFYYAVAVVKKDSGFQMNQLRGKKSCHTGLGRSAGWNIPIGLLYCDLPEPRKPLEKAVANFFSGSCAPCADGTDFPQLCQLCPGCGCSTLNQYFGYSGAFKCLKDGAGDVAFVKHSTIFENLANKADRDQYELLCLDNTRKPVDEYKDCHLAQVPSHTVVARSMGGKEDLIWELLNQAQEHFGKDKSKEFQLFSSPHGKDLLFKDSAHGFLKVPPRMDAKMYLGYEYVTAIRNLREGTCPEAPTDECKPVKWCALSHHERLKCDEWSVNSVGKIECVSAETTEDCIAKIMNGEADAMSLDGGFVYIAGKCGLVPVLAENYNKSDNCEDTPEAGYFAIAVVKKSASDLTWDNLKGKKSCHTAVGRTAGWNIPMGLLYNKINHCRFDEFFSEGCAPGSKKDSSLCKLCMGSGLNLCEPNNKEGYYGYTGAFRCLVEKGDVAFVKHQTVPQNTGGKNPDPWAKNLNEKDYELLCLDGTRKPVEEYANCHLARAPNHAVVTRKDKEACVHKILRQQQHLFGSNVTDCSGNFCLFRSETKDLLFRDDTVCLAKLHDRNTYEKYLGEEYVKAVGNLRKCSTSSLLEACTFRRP

Target: Transferrin binding protein B of Neisseria meningitidis serogroup B strain M982 (Neisseria meningitidis serogroup B strain M982) (UniProt Q09057)
Assay: ELISA; high throughput protein ELISA; TbpB proteins captured on the plate, HRP-labelled hTf added as control of capture and folding

Substance: HRP-labelled human transferrin (from UniProt P02787 20-698) (ligand)
- binding: binds
